According to publication PMC4299599, “Quantification of cytosolic interactions identifies Ede1 oligomers as key organizers of endocytosis” (Molecular Systems Biology, 2014):
These are yes or no findings as the source states them, for the method shown.

B1: Ent1, Q12518 1-454 (protein)
chain: MSKQFVRSAKNLVKGYSSTQVLVRNATSNDNHQVSKDSLIELAEKSYDSADFFEIMDMLDKRLNDKGKYWRHIAKALTVIDYLIRFGSENCVLWCRENLYIIKTLKEFRHEDDEGIDQGQIVRVKAKELTALLSDDERLNEERNMNIKGRNRKGRRRRGTGRSDENDDDLQRAISASRLTAEEDERRRKQDEDYETALQLSKEEEELKRLQDLQRMQQQQGQQQLQQPMYYDIFGNPITPEEYAQFQLQQQQQQQQQQLQQQPMYYDVFGNPITPEELAQFQQQQQLQEQQYLASMQQQQQAMSNNPFAKSEQSSSSPKRNQLVAASSPQQLQQQKQQEPLIQNRTGNQSMTDKYSKLNELLATGTGIDTFGNVGEARIPAQHTKTGTFINSQGTGYRQVSDDPNHNPFLNSQYTGLPSTSVVPTQTGYGFGNQSQQQSQNNGSNNRGYTLIDL
B2: Pan1, P32521 1-1480 (protein)
chain: MYNPYQQQGMGYQQQQQQQQQQPNGFYPQQQQGQSSNQPQGQPQPQQQMAFNQPQATGIGGMPQSFGNSFSSMPQQPQTGYNNNGNNGSVYGNGNFGQQPQQQQQQAKPQHTGYVPNSSMPMMNTTGTMPPPNPAQQPQLQSIQPQGTGYYQAANTANVHSVQPLQSQGTGYYVSTPNLISSNQTQQPLQAQGTGYYQSQPQQVPPPQQAQSLQPLKPQQTGFYLQPQNQAPLEPLKPTATGFVNSFANNGLNNDIKIPAIRLSFITAQDQAKFETLFRSIVTNGSNTVSGANCRKILMRSGLPPSQLARIWTLCDTSKAGELLFPEFALAMHLINDVLQGDTIPYELDSKTKNEVSSFIDAINLSIANQDSSANDAPKTPFDEFITAGVQNLQPQPTGYMPQTSFGIPLQSQITGGGVASALNPQSTGFMAPTTFNMSMNTGTPGLNPQITGGAPASMQPNITGNALQPQTTGMMPQTTGMMPQTTGMMPQTSFGVNLGPQLTGGALQSQYTGGYGSVMPQQSGPASMPNLSFNQQGLQSQLTGLQPQPTGFLPPSNFSATMPLTAQKTGFGNNEIYTKSNFNNNLIDNSSQDKISTEEKSLFYKIFETFDTQNKGLLDSPTAVEIFRKSGLNRADLEQIWNLCDINNTGQLNKQEFALGMHLVYGKLNGKPIPNVLPSSLIPSSTKLLDNLKNQLKTEPTTTKEKPSFGKIDALSYKNNDDDVLPNYRNRRKVYSAKNEEQSSFSSPSAKSVNHSSSTLQTDDISVDKTVEKKTAKPKYAGFSREINLKNIASLENEIKNISNPENCYDSSIPSDLTSRFDAIIAKLPNLFNEISTIDNEITNAKIQLYRKKNPSSIIGSGPNGEITENDRKKAKSRALLRARMSALTGKSTESEDSLSMEDEQQSAEIKRIQQENGKNQEIIKDIRSSISDISASLKSTMTGSNMISNQEFERWEFGIGLEDGVREFLDDLKSNSNKSVTESSPFVPSSTPTPVDDRSSSPSYSQFKTAEERAAYLKEQAKKRMKEKLAKFDKNRRNVTQSSRSISSENSREQPQQIAGSSNLVEPRATPFQEEKYVEVAQPTQPVQSTQPVQPTQPVQPTQPVQPTQPVQPTQPVQPTQPVQNVYNAKQESDDEDEDDEEKRLQEELKRLKLKKKADKEKRLAALRKQIEDAQNESDEEETNGKDNFGGHVNVPQAAPVAPSAAFSQNSTNAPRSVHAAVTPAAGKNSTGLPSTTMGHNPYFKDASASSTSTFDARAAEMQRRIQRGLDEDEDDGWSDEDESNNRVAVDNKVEEAKIGHPDHARAPPVTAAPLPSVTPVPPAVPVPQANTSNEKSSPIPIAPIPPSVTQEPPVPLAPPLPAVDGFQEPPIPSAPAIATAVQKSGSSTPALAGGVLPPPPPLPTQQASTSEPIIAHVDNYNGAEKGTGAYGSDSDDDVLSIPESVGTDEEEEGAQPVSTAGIPSIPPAGIPPPPPLP
B3: End3, P39013 1-349 (protein)
chain: MPKLEQFEIKKYWQIFSGLKPIENKVNHDQVLPILYNSKLDSSVLNKIWFLADIDDDDNLDFEEFVICMRLIFDMVNKNISSVPDELPDWLIPGSKVNLIKERKKRKQIENADLPPKKEIKVDWYMSPDDLNQYEKIYNSCAKLTDGTITFNELSTKLSTKFFNISKTDLNKVWSLINPQNLPSIDRDPTFYFIHCLRQRNDLGAEIPASLPNSLAEVCNKKQLSYDLRSSQPPTKRKEEANEVDNLRDNGQNSSSDSSGSNVLSNEDSIKQKYASLTDDQVANMREQLEGLLNYKKSEKTQGGSKLSKRINIRSITDDLDNIEQQVEVLENYLNNKRHELQALQAEIN

Columns and labels:
Settings in all cases: remark: other sources report otherwise
[1] = molecular target: T1, Ent1 (S. cerevisiae), Q12518; assay: condition: 1000 nM (only Kdeff-values < 1000 nM are shown); fluorescence cross-correlation spectroscopy (FCCS); in the cytoplasm of living yeast cells; first-named protein green (3myeGFP or 1myeGFP; eGFP for Don1), second red (3mCherry); self-interaction in diploid strains with one allele of each colour; apparent or effective KD (Kdeff) from single-cell measurements; only Kdeff values < 1000 nM are shown; values for …
T1 chain: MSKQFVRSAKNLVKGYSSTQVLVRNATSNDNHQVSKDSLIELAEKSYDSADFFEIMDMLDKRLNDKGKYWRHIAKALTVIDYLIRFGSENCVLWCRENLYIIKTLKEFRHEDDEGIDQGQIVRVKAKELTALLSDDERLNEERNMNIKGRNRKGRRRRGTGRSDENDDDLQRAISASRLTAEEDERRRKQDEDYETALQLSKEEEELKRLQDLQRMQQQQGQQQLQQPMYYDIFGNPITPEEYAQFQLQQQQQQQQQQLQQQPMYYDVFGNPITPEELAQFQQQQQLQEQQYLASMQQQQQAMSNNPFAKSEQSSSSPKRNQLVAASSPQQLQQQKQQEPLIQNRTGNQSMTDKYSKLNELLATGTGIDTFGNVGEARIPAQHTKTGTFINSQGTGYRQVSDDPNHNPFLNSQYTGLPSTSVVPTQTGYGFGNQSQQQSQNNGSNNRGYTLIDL

[2] = molecular target: T2, Sla1 (S. cerevisiae), P32790; assay: condition: detection range of FCCS: apparent KD up to ~1 μM; fluorescence cross-correlation spectroscopy (FCCS); living yeast cells, observation volume in the cytoplasm; one protein tagged with (3)myeGFP/eGFP and the other with 3mCherry in the same strain; apparent (effective) KD; interactions up to ~1 μM detectable
T2 chain: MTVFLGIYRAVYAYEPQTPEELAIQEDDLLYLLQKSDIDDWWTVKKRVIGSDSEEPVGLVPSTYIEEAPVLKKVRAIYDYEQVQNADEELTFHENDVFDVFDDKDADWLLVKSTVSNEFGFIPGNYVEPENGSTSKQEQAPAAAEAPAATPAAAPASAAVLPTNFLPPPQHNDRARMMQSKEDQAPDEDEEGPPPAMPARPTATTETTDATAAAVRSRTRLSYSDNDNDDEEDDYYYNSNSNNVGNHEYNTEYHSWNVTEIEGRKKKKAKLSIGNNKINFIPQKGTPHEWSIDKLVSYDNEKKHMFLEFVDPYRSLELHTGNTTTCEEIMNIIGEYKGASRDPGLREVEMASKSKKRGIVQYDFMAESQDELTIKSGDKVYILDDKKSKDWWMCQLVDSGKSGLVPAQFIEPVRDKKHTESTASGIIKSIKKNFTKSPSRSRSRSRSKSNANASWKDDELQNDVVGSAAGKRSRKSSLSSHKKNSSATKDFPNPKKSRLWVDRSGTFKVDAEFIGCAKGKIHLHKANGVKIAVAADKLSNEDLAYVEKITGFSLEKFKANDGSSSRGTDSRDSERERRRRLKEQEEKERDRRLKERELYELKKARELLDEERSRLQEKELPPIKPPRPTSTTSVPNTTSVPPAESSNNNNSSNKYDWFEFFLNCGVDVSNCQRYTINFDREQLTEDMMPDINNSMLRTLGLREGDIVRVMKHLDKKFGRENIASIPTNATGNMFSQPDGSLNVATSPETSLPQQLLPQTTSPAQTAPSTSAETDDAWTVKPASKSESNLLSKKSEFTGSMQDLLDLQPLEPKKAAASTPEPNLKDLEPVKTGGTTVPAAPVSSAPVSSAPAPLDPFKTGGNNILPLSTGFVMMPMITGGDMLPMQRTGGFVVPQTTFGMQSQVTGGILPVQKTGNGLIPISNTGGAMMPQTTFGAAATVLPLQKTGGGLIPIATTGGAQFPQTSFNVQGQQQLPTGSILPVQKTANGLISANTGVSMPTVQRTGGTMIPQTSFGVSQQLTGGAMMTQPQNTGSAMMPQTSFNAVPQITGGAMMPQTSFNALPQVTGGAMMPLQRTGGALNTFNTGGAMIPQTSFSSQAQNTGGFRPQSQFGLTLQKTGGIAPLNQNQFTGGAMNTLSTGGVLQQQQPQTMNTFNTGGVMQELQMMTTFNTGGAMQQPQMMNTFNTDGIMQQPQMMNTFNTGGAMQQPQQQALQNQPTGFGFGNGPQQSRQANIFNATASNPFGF

[3] = molecular target: T2, Sla1 (S. cerevisiae), P32790; assay: condition: 1000 nM (only Kdeff-values < 1000 nM are shown); fluorescence cross-correlation spectroscopy (FCCS); in the cytoplasm of living yeast cells; first-named protein green (3myeGFP or 1myeGFP; eGFP for Don1), second red (3mCherry); self-interaction in diploid strains with one allele of each colour; apparent or effective KD (Kdeff) from single-cell measurements; only Kdeff values < 1000 nM are shown; values for …

Row | Binder | binding [1] | binding [2] | binding [3]
1 | B1 | no binding |  | 
2 | B2 |  | no binding | no binding
3 | B3 |  | no binding | no binding
